Reference: article PMC8642402
No constants are given. Whether binding was seen depends on the method and setting. In cells and extracts the contact can be indirect. Some results given as binding are weak or reduced against the parent protein; the word gives no strength.

Protein sequences, listed by entry. Tags and fused reporters are not part of them.
UniProt P50990: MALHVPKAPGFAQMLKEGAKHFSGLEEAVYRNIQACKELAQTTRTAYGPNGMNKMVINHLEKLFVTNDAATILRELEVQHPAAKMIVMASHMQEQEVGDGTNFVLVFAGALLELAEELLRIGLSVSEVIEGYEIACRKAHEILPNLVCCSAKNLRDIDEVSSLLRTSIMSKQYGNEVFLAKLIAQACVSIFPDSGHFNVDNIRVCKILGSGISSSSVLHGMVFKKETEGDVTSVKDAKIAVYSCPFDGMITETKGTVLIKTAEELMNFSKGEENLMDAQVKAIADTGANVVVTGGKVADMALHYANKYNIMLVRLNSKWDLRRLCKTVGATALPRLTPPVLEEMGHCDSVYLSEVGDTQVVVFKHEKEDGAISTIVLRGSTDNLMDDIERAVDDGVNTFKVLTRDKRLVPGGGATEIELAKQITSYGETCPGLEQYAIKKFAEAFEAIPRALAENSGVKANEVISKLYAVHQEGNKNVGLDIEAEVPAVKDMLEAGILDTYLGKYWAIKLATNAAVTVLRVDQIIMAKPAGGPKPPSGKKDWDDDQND

Experiments:
[1] = molecular target: TCP1 complex subunit 8 (CCT8) (human (endogenous in HCT116 and RKO)) (UniProt P50990); assay: co-IP; endogenous proteins; cytoplasmic and nuclear proteins of HCT116 separated, interaction detected in the cytoplasm; purified by anti-CCT8 or anti-p53 affinity gel; pellets blotted with anti-p53 and anti-CCT8 antibodies
[2] = molecular target: TCP1 complex subunit 8 (CCT8) (human (endogenous in HCT116 and RKO)) (UniProt P50990); assay: co-IP; endogenous proteins; HCT116 and RKO cells lysed and purified by anti-CCT8 or anti-LASP1 affinity gel; pellets blotted with anti-LASP1 and anti-CCT8 antibodies

Molecule | binding [1] | binding [2]
tumor suppressor protein p53 (wild type, WTp53) (from UniProt P04637 1-393) | binds | –
LIM and SH3 protein 1 (LASP1) (protein, UniProt Q14847 1-261) MNPNCARCGKIVYPTEKVNCLDKFWHKACFHCETCKMTLNMKNYKGYEKKPYCNAHYPKQSFTMVADTPENLRLKQQSELQSQVRYKEEFEKNKGKGFSVVADTPELQRIKKTQDQISNIKYHEEFEKSRMGPSGGEGMEPERRDSQDGSSYRRPLEQQQPHHIPTSAPVYQQPQQQPVAQSYGGYKEPAAPVSIQRSAPGGGGKRYRAVYDYSAADEDEVSFQDGDTIVNVQQIDDGWMYGTVERTGDTGMLPANYVEAI | – | binds
